PMC11343471
Results are given in words; binding and its absence hold for the method and conditions named. Binding seen in cells or lysates may run through a third protein. A yes stands for co-enrichment or nearness to the bait. Other partners may have been found. Sequences can lack the tags named with a protein.

Protein sequences, listed by entry. Tags and fused reporters are not part of them. Residues count along the entry.
UniProt Q15843, residues 1-76: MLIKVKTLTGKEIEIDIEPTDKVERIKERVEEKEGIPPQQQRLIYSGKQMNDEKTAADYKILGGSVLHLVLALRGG
UniProt P63208: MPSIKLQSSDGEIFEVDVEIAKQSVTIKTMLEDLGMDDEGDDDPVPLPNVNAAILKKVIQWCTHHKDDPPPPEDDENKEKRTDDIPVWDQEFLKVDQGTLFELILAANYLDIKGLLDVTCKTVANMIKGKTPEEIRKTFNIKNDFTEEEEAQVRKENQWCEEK

T1: FH-ER-SAMD1 (FLAG-HA-ER-tagged SAMD1) (UniProt Q6SPF0)
T1 sequence: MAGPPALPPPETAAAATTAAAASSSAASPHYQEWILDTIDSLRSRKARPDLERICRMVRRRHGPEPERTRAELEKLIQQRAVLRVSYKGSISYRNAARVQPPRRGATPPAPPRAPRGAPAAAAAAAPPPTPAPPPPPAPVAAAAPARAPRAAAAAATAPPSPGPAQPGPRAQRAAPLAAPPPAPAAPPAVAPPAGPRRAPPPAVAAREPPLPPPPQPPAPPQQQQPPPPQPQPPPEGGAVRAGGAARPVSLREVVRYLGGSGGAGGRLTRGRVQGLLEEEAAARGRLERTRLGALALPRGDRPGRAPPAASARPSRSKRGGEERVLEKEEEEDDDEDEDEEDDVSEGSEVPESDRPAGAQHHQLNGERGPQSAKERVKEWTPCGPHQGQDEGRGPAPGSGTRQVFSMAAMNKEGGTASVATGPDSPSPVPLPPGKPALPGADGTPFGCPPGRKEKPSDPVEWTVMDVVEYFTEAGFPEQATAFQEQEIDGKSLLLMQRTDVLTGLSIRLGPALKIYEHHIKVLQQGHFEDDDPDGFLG

B1: L3MBTL3, endogenous in PaTu8988t cells (protein, UniProt Q96JM7 1-780)
chain: MTESASSTSGQEFDVFSVMDWKDGVGTLPGSDLKFRVNEFGALEVITDENEMENVKKATATTTWMVPTAQEAPTSPPSSRPVFPPAYWTSPPGCPTVFSEKTGMPFRLKDPVKVEGLQFCENCCQYGNVDECLSGGNYCSQNCARHIKDKDQKEERDVEEDNEEEDPKCSRKKKPKLSLKADTKEDGEERDDEMENKQDVRILRGSQRARRKRRGDSAVLKQGLPPKGKKAWCWASYLEEEKAVAVPAKLFKEHQSFPYNKNGFKVGMKLEGVDPEHQSVYCVLTVAEVCGYRIKLHFDGYSDCYDFWVNADALDIHPVGWCEKTGHKLHPPKGYKEEEFNWQTYLKTCKAQAAPKSLFENQNITVIPSGFRVGMKLEAVDKKNPSFICVATVTDMVDNRFLVHFDNWDESYDYWCEASSPHIHPVGWCKEHRRTLITPPGYPNVKHFSWDKYLEETNSLPAPARAFKVKPPHGFQKKMKLEVVDKRNPMFIRVATVADTDDHRVKVHFDGWNNCYDYWIDADSPDIHPVGWCSKTGHPLQPPLSPLELMEASEHGGCSTPGCKGIGHFKRARHLGPHSAANCPYSEINLNKDRIFPDRLSGEMPPASPSFPRNKRTDANESSSSPEIRDQHADDVKEDFEERTESEMRTSHEARGAREEPTVQQAQRRSAVFLSFKSPIPCLPLRWEQQSKLLPTVAGIPASKVSKWSTDEVSEFIQSLPGCEEHGKVFKDEQIDGEAFLLMTQTDIVKIMSIKLGPALKIFNSILMFKAAEKNSHNEL
B2: L3MBTL4, endogenous in PaTu8988t cells (protein, UniProt Q8NA19 1-623)
chain: MKQPNRKRKLNMDSKERLDQDGRLEQAEEEKKPKDSTTPLSHVPSAAAQGAWSWEWYLKEQKAVAAPVELFSKDQSFPEHENGFQIGMRLEGIDPRHPSVFCVLSVAEVCGYRLRLHFDGYLSCYDFWTNAGSPDIHPVGWCEKTKHELHIPKGYRKDKFVWMDYLKACKLQNAPKKLFRNRSPNGPMSKEFQVGMKLEAVDRKNPSLVCVATIADIVEDRLLVHFDNWDDSYDYWCDVNSPYVQPVGWCQENGRTLIAPQGYPNPENFSWTEYLEATQTNAVPAKVFKMRLPHGFLPNMKLEVVDKRNPRLIRVATIVDVDDQRVKVHFDGWDHKYDYWVEADSPDIHPIGWCDVTGHPLEVPQRTNDLKILPGQAVCPTPGCRGIGHIRGPRYSGHHSAFGCPYSDMNLKKEATLHDRLREQTQANLESDSSHSKSKSLCSLNFNGKHEKVNSQPRLVQQAKCLKIKGKEDIDLDNLFRVLVLHPRGLEYSVEQAQQVLHQSVSMSTVSAHPFRDLPLGREQHCKLLPGVADIRASQVARWTVDEVAEFVQSLLGCEEHAKCFKKEQIDGKAFLLLTQTDIVKVMKIKLGPALKIYNSILMFRHSQELPEEDIASGQEVRG
B3: FBXO11, endogenous in PaTu8988t cells (protein, UniProt Q86XK2 1-927)
chain: MNSVRAANRRPRRVSRPRPVQQQQQQPPQQPPPQPPQQQPPQQQPPPPPQQQQQQQPPPPPPPPPPLPQERNNVGERDDDVPADMVAEESGPGAQNSPYQLRRKTLLPKRTACPTKNSMEGASTSTTENFGHRAKRARVSGKSQDLSAAPAEQYLQEKLPDEVVLKIFSYLLEQDLCRAACVCKRFSELANDPILWKRLYMEVFEYTRPMMHPEPGKFYQINPEEYEHPNPWKESFQQLYKGAHVKPGFAEHFYSNPARYKGRENMLYYDTIEDALGGVQEAHFDGLIFVHSGIYTDEWIYIESPITMIGAAPGKVADKVIIENTRDSTFVFMEGSEDAYVGYMTIRFNPDDKSAQHHNAHHCLEITVNCSPIIDHCIIRSTCTVGSAVCVSGQGACPTIKHCNISDCENVGLYITDHAQGIYEDNEISNNALAGIWVKNHGNPIIRRNHIHHGRDVGVFTFDHGMGYFESCNIHRNRIAGFEVKAYANPTVVRCEIHHGQTGGIYVHEKGRGQFIENKIYANNFAGVWITSNSDPTIRGNSIFNGNQGGVYIFGDGRGLIEGNDIYGNALAGIQIRTNSCPIVRHNKIHDGQHGGIYVHEKGQGVIEENEVYSNTLAGVWVTTGSTPVLRRNRIHSGKQVGVYFYDNGHGVLEDNDIYNHMYSGVQIRTGSNPKIRRNKIWGGQNGGILVYNSGLGCIEDNEIFDNAMAGVWIKTDSNPTLRRNKIHDGRDGGICIFNGGRGLLEENDIFRNAQAGVLISTNSHPILRKNRIFDGFAAGIEITNHATATLEGNQIFNNRFGGLFLASGVNVTMKDNKIMNNQDAIEKAVSRGQCLYKISSYTSYPMHDFYRCHTCNTTDRNAICVNCIKKCHQGHDVEFIRHDRFFCDCGAGTLSNPCTLAGEPTHDTDTLYDSAPPIESNTLQHN

These molecules were tested against T1, FH-ER-SAMD1 (FLAG-HA-ER-tagged SAMD1) (assay: affinity purification with mass spectrometry; FLAG IP from dialysed, benzonase-treated nuclear extract of PaTu8988t SAMD1 KO cells stably expressing FH-ER-SAMD1 or FH-ER (control), 200 nM 4-OHT for 24 h; TAP buffer, 3 h at 4 °C; LC-MS on beads).

binding, binds:
NEDD8, endogenous in PaTu8988t cells (from UniProt Q15843 1-76)
SKP1, endogenous in PaTu8988t cells (from UniProt P63208 1-163)
B1
B2
B3
